# Cleaved PARP after 72 h of treatment

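Human melanoma cell lines in 1,536-well plates were treated with two drugs together for 72 h, then fixed, stained and imaged. The read-out is the fraction of cleaved-PARP-positive nuclei, in % of that fraction in the DMSO control; 200 means twice the control level of this apoptosis marker. Every drug was used at one fixed concentration, the higher of two screened. No replicate spread is given; individual values may be noisy. Basal and induced levels differ widely between cell lines.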
This is part of the screen, not chosen by result.

Drugs:
vorinostat (0.4 µM): O=C(CCCCCCC(=O)Nc1ccccc1)NO
perifosine (2 µM): CCCCCCCCCCCCCCCCCCOP(=O)([O-])OC1CC[N+](C)(C)CC1
CP-690550 (5 µM): C[C@@H]1CCN(C(=O)CC#N)C[C@@H]1N(C)c1ncnc2[nH]ccc12
GW9662 (10 µM): O=C(Nc1ccccc1)c1cc([N+](=O)[O-])ccc1Cl
PD173074 (0.5 µM): CCN(CC)CCCCNc1ncc2cc(-c3cc(OC)cc(OC)c3)c(NC(=O)NC(C)(C)C)nc2n1
SNS-032 (0.05 µM): CC(C)(C)c1cnc(CSc2cnc(NC(=O)C3CCNCC3)s2)o1
PLX4720 (0.4 µM): CCCS(=O)(=O)Nc1ccc(F)c(C(=O)c2c[nH]c3ncc(Cl)cc23)c1F
lestaurtinib (0.02 µM): C[C@]12O[C@H](C[C@]1(O)CO)n1c3ccccc3c3c4c(c5c6ccccc6n2c5c31)CNC4=O
BI-D1870 (1 µM): CC(C)CCN1c2nc(Nc3cc(F)c(O)c(F)c3)ncc2N(C)C(=O)C1C (centres unmarked)

Combination,UACC-62,A2058,IPC-298,WM3619,SK-MEL-2,WM3526,SK-MEL-30,MZ2-MEL,COLO 800,MeWo,WM115,UACC-257,RVH-421,G-361,IST-MEL1
CP-690550 + PD173074,16.0,133,55.3,88.1,304,132,57.8,85.0,98.3,75.5,141,14.7,96.0,50.8,54.5
GW9662 + perifosine,265,185,39.4,135,60.9,121,106,21.0,165,109,139,58.9,108,145,95.3
SNS-032 + perifosine,207,164,76.8,101,252,116,56.2,154,220,167,240,34.5,71.8,172,197
CP-690550 + PLX4720,203,144,86.9,226,126,408,68.4,163,137,197,372,43.4,101,120,144
lestaurtinib + PLX4720,245,160,248,117,62.0,426,92.4,148,34.7,98.4,427,58.8,375,502,121
lestaurtinib + CP-690550,96.0,156,47.3,94.8,98.5,226,145,108,74.7,98.6,252,62.0,193,178,142
PD173074 + perifosine,155,122,112,87.2,80.6,126,77.1,83.3,178,98.7,39.4,109,137,78.7,75.8
SNS-032 + PLX4720,223,191,107,132,269,474,84.7,221,92.7,175,149,124,69.7,370,302
vorinostat + PLX4720,235,71.8,86.5,156,48.0,275,132,36.8,88.3,60.6,211,101,149,198,69.1
GW9662 + BI-D1870,263,133,155,184,141,164,164,133,284,396,64.4,69.3,138,40.1,553
lestaurtinib + SNS-032,196,181,73.5,96.3,11100,94.1,65.7,595,254,130,67.9,114,35.8,300,61.8
SNS-032 + GW9662,347,67.3,146,168,311,144,205,328,164,89.1,300,108,51.4,79.7,116
GW9662 + PLX4720,454,101,298,177,115,297,182,61.7,179,307,175,30.3,279,249,97.2
lestaurtinib + perifosine,194,374,65.0,113,177,188,79.5,70.5,66.0,38.0,303,24.3,146,140,130
PD173074 + lestaurtinib,141,63.6,68.2,102,162,220,91.9,60.4,110,61.6,62.9,20.6,128,103,118
GW9662 + lestaurtinib,179,142,71.8,134,231,258,200,572,267,112,237,92.2,479,42.2,55.7
PD173074 + vorinostat,105,86.8,58.1,152,128,78.8,98.2,45.2,106,78.7,67.2,70.4,33.9,41.8,60.7
CP-690550 + SNS-032,185,239,45.4,134,192,216,55.6,422,138,111,194,88.3,56.3,114,138
perifosine + vorinostat,159,350,36.4,118,130,80.0,177,98.1,85.4,104,195,116,118,61.3,62.2
GW9662 + vorinostat,352,46.6,50.9,168,136,98.0,104,14.7,243,150,137,120,152,43.6,347
BI-D1870 + PLX4720,197,112,90.4,112,107,398,55.4,59.7,35.0,147,106,154,360,246,80.3
vorinostat + BI-D1870,161,119,67.9,142,378,115,52.5,43.4,117,155,112,29.1,71.8,102,104
vorinostat + CP-690550,160,66.1,81.3,112,118,150,161,121,77.5,90.5,129,107,229,55.8,121
BI-D1870 + CP-690550,168,143,83.1,119,119,62.0,108,133,157,81.1,89.8,28.8,113,1010,149
PD173074 + GW9662,250,130,83.7,135,115,104,110,77.8,76.6,63.7,115,25.1,108,95.0,86.1
PD173074 + SNS-032,265,179,263,149,742,106,105,103,128,44.4,133,85.3,203,91.7,39.2
perifosine + BI-D1870,161,83.4,44.4,104,101,106,194,96.8,178,200,96.5,28.0,173,664,243
CP-690550 + perifosine,83.3,330,37.1,84.2,75.2,116,153,123,107,85.0,123,56.3,90.7,106,101

2 of the entries, repeated:

{"combination": "CP-690550 + perifosine", "UACC-62": 83.3, "A2058": 330, "IPC-298": 37.1, "WM3619": 84.2, "SK-MEL-2": 75.2, "WM3526": 116, "SK-MEL-30": 153, "MZ2-MEL": 123, "COLO 800": 107, "MeWo": 85.0, "WM115": 123, "UACC-257": 56.3, "RVH-421": 90.7, "G-361": 106, "IST-MEL1": 101}
{"combination": "vorinostat + PLX4720", "UACC-62": 235, "A2058": 71.8, "IPC-298": 86.5, "WM3619": 156, "SK-MEL-2": 48.0, "WM3526": 275, "SK-MEL-30": 132, "MZ2-MEL": 36.8, "COLO 800": 88.3, "MeWo": 60.6, "WM115": 211, "UACC-257": 101, "RVH-421": 149, "G-361": 198, "IST-MEL1": 69.1}

Data from the primary screen of doi:10.1371/journal.pone.0140310, rounded.